Binding data for one substance are collected here from patent US20230032643A1.

By UniProt entry, the sequences of proteins in these tests, tags left out. Where a name states a change or a piece, a line headed by the entry shows the natural chain unless it says otherwise.
UniProt P20023: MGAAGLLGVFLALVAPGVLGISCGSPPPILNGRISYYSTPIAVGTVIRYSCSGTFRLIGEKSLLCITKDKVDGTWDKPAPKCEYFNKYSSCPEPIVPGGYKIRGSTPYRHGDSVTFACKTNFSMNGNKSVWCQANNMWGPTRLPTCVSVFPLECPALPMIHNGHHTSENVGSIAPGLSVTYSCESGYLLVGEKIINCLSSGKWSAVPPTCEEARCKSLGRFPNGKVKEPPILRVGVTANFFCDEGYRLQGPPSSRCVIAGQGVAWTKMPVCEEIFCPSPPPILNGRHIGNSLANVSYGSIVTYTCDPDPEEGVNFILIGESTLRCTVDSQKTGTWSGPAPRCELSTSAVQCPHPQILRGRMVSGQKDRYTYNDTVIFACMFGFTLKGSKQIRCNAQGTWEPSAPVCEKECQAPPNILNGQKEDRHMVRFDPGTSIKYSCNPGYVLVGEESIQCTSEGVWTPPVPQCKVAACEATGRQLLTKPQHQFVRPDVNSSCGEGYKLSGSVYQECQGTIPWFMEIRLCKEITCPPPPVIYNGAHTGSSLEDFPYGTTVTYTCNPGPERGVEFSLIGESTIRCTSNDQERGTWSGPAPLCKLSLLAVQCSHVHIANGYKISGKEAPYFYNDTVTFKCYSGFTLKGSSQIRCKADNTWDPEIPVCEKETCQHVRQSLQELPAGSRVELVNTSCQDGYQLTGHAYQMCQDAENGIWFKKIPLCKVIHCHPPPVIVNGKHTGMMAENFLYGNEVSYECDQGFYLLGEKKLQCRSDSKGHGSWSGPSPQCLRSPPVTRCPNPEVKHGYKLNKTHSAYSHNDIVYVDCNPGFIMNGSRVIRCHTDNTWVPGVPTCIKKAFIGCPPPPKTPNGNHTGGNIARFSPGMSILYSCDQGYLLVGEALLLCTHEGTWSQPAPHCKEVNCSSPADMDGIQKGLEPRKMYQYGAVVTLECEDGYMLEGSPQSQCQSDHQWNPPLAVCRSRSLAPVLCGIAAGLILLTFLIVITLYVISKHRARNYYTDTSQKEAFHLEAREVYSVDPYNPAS
UniProt P01024: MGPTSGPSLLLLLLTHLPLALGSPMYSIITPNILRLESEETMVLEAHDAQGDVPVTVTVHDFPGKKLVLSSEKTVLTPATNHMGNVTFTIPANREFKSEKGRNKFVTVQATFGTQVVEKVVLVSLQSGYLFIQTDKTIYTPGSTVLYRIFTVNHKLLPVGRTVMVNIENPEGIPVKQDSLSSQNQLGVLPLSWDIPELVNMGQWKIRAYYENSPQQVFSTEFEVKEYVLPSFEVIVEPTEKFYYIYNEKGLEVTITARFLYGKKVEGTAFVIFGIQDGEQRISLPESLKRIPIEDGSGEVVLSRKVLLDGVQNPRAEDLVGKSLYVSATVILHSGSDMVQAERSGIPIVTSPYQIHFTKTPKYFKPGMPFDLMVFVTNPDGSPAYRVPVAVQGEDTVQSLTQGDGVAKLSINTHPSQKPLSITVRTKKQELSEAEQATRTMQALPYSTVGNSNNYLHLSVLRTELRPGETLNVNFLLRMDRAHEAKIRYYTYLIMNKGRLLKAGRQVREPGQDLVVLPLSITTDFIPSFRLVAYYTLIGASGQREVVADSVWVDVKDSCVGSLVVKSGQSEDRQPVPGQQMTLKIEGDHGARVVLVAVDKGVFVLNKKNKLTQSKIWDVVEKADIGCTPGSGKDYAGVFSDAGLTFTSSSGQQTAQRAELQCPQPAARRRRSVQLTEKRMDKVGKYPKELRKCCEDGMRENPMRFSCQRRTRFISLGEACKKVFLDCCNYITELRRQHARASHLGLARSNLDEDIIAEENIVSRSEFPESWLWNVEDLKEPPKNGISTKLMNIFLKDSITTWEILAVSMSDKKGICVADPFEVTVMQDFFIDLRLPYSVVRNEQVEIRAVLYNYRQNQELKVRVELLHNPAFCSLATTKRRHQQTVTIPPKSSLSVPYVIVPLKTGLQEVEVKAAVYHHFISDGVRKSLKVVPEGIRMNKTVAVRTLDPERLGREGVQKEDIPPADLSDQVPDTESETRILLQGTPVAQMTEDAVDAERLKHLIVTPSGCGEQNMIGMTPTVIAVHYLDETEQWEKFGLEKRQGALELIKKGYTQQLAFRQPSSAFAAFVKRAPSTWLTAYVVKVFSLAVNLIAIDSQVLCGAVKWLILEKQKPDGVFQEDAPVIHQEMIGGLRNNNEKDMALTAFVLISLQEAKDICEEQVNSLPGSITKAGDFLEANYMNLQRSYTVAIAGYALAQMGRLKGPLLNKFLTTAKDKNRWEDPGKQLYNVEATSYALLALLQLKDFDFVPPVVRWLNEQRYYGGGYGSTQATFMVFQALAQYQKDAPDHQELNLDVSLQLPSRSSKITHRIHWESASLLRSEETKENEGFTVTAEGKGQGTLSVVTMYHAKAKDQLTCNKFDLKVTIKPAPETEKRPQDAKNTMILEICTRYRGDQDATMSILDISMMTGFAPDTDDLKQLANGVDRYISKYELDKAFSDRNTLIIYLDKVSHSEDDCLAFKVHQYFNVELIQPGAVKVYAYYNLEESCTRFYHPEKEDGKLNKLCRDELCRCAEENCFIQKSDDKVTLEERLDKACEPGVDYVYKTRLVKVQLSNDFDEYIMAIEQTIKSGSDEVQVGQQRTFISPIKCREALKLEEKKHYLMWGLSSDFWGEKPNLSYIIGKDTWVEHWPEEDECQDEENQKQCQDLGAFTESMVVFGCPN

No constants are given. Whether binding was seen depends on the method and setting. Some results given as binding are weak or reduced against the parent protein; the word gives no strength.

This assay deals with human CR2 on primary human cells (B cells in PBMCs; tonsil follicular dendritic cells) (human) (UniProt P20023). Briefly: flow cytometry on CD20+ B cells in human PBMCs; APC fluorescence of pre-bound C3dg:Streptavidin-APC after washing, followed over time. (In flow cytometry, cells or beads pass a laser one at a time.)

For “C3dg:Streptavidin-APC complexes (from UniProt P01024 955-1303; P22629 37-163) (ligand)”, the binding entry was “binds”.
